In patent US10822367B2, “Pharmaceutical composition for preventing or treating dementia and improving cognitive function, comprising glasswort extract” (priority 2017, dated 2020):

Test system: forgetfulness animal models using scopolamine
Experiment: Passive avoidance test
Assay type: in vivo, mice
Conditions: scopolamine 1 mg/kg intraperitoneally
Experimental: A test was conducted to investigate the improvement efficacy of cognitive ability and memory of the desalted Salicornia europaea extract (PM-EE) obtained in example 4-1 above and acanthoside B as an AChE inhibitory and neuroinflammation inhibiting substance isolated from PM-EE in examples 4-2 and 4-3. The learning ability effect was measured through a passive avoidance test in forgetfulness animal models using scopolamine. Mice were placed in the bright section with shining light and allowed to go over for 20 seconds. Subsequently, the guillotine door was opened and the mouse was allowed to enter into the dark section. […] The time from when the guillotine door was opened to when the mouse entered the dark section was measured. Once the mouse entered the dark section, the guillotine door was closed, and an electric shock of 0.25 mA flows through a grid bottom for 3 seconds, and the mouse remembered this electrical action. The present test was conducted 24 hours after the learning test. […] At 30 minutes after the administration of scopolamine, the mouse was allowed to go over for 10 seconds, and then the time taken for four feet of the mouse to enter the dark section after the opening of the guillotine door (transfer latency time, TLT: retention time) was measured up to 150 seconds. […]

## CN1[C@@H]2C[C@@H](OC(=O)[C@H](CO)c3ccccc3)C[C@H]1[C@@H]1O[C@@H]12 [scopolamine, reference compound]
  Retention time in groups administered with only scopolamine: significantly reduced
